According to US9963498B2, “Peptides that inhibit syndecan-1 activation of VLA-4 and IGF-1R” (Wisconsin Alumni Research Foundation, priority 2016, dated 2018):
“Also recorded” adds a separate entry of the source. Part of at least one peptide drawing is inferred or uncertain, most often the ends. Where no end group is shown, it is not given here.

What was measured:
CAG myeloma cells [1] = experiment: Myeloma cell viability assay (CellTiter-GLO); assay type: cell-based, human; conditions: 3 days, up to 30 μM peptide
HMEC-1 endothelial cells = experiment: VLA-4-mediated endothelial cell adhesion to IIICS fragment of fibronectin; assay type: cell-based, human; conditions: HMEC-1 on IIICS fragment, 2.5 hr at 37° C., 0-30 μM
[2] = test system: M21 murine melanoma cells; experiment: Melanoma cell invasion through filters coated with fibronectin; assay type: cell-based, mouse; conditions: 16 hr, 30 μM peptide
Procedure: FIG. 17. […] M21 murine melanoma cells are allowed to migrate for 16 hr through filters coated with fibronectin. The relative roles of the αvβ3 integrin and the α4β1 integrin (VLA-4) are determined using blocking antibodies to αv and α4 integrin subunits, or both antibodies combined.

CAG myeloma cells [3] = experiment: VLA-4-mediated myeloma cell adhesion (FN / IIICS); assay type: cell-based, human; conditions: identical adhesion assay, data not shown
[4] = test system: B78 murine melanoma cells; experiment: Melanoma cell survival (trypan blue exclusion); assay type: cell-based, mouse; conditions: up to 72 hr, 30 μM
Procedure: FIG. 18. SSTNI/V BLOCKS SURVIVAL OF MOUSE MELANOMA CELLS. B78 murine melanoma cells grown in serum-containing DMEM are incubated for up to 72 hr in 30 μM SSTNVLA4, SSTNIGF1R or SSTNI/V, then viable cells were quantified by trypan blue exclusion.
All cells were cultured at 37° C. and 92.5% air/7.5% CO2. The derivation and culture of CAG myeloma and HMEC-1 cells are described previously (Ades et al. 1992, Rapraeger et al. 2013). B78 murine melanoma cells were kindly provided by Dr. Sondel, Department of Pediatrics, University of Wisconsin-Madison. All cells are routinely screened for mycoplasma contamination. For viability studies, 2.5×10^4 myeloma cells/well or 10^4 B78 murine melanoma cells were plated in 96-well plates in complete DMEM containing 10% calf serum in the presence or absence of SSTN peptides for 24, 48 or 72 hrs. Numbers of viable cells were then determined by addition of CellTiter-GLO reagent to the culture medium as described by the manufacturer and viable cells determined by staining with 0.4% trypan blue and counting cells that exclude (viable) or take up (dead) the stain.

In the case of “LPAGEGPKEGEAVVLPEVEPGLTAREQDFTFETSGENTA [SSTNI/V]”, the “myeloma cell killing (viable cells as percentage of untreated cells)” value (CAG myeloma cells [1]) is reported as “induces apoptosis; also recorded: equally as effective as SSTNIGF1R; also recorded: KILLS MYELOMA CELLS EQUIVALENT TO SSTNIGF1R”, the “myeloma cell killing (viable cells as percentage of untreated cells)” value (CAG myeloma cells [1]; listed as SSTN-I/V) is reported as “as effectively as SSTNIGF1R alone” and the “block of VLA-4-mediated endothelial cell adhesion” value (HMEC-1 endothelial cells) is reported as “equally as effective as SSTNVLA4; also recorded: BLOCKS VLA-4-MEDIATED ENDOTHELIAL CELL ADHESION EQUIVALENT TO SSTNVLA4”. For the same sequence, the “block of VLA-4-mediated endothelial cell adhesion” value (HMEC-1 endothelial cells; listed as SSTN-I/V) was “works as well as SSTNVLA4”, the “block of melanoma cell invasion” value [2] was “blocks invasion; also recorded: total block; also recorded: completely preventing cell invasion” and the “block of VLA-4-mediated myeloma cell adhesion” value (CAG myeloma cells [3]) was “blocks VLA-4-mediated adhesion”. For the same sequence, the “block of VLA-4-mediated myeloma cell adhesion” value (CAG myeloma cells [3]; listed as SSTN-I/V) was “works as well as SSTNVLA4” and the melanoma cell survival [4] was “mimics this activity; also recorded: blocks”.
